Source: PubChem BioAssay AID504764 (Drosophila RNAi Screening Center, 2011)
Assay: 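Genes whose knock-down alters Notch-dependent transcription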 (primary screen). System: Drosophila Kc167 cells. Knock-down reagent: long dsRNA against Drosophila genes. Timing: about 5 days (4 days dsRNA, then 24 h after transfection). Treatment: transfection of constitutively active membrane-tethered Notch lacking the extracellular domain, read 24 h later. Measured: 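Light from a Notch-responsive E(spl)m3 luciferase reporter under active Notch, with control-promoter and no-Notch reporter wells to normalise; raw counts from paired wells a and b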. Scale: induced reporter light, run 1, well a and induced reporter light, run 1, well b: higher = more light from the Notch target reporter with active Notch; control promoter light, run 1, well a and control promoter light, run 1, well b: higher = more light from the viral control promoter (cell number, transfection, viability); uninduced reporter light, run 1, well a: higher = more light from the Notch target reporter without active Notch. Active means: 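Wells with low control signal or poorly matching duplicates excluded; duplicates averaged; per source plate, z beyond ±2 for induced/control log2 ratio or beyond ±1.8 for induced/uninduced marks a hit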. Calls: active = modifier hit (raised or lowered Notch signal); inactive = not a hit.
The deposit covers about 22,000 reagents; shown is an unselected part of those that have a named target and a result. Over the whole deposit, 403 (1.9%) got an active call. 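Unnormalised raw counts per well; ratio z-scores behind the hit calls and whether each hit raises or lowers signal are not deposited.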 Names joined by + are all predicted targets of the reagent. The record does not give: the amount of reagent.

no.	Gene	dsRNA	induced reporter light, run 1, well a	induced reporter light, run 1, well b	control promoter light, run 1, well a	control promoter light, run 1, well b	uninduced reporter light, run 1, well a	activity call
1	scf (supercoiling factor)	DRSC08735	1.25e5	1.10e5	1.74e5	1.74e5	7285	inactive
2	CG12384	DRSC06145	2.28e5	2.51e5	2.41e5	2.64e5	18605	inactive
3	CG6749	DRSC10704	2.16e5	1.44e5	1.93e5	1.87e5	9732	inactive
4	Spc105R (Spc105-related)	DRSC11663	44895	41370	36995	41000	4635	inactive
5	CG18268 + CG3014	DRSC15319	87770	76500	87090	63355	8270	inactive
6	CG17202	DRSC15194	1.04e5	1.04e5	1.20e5	81205	6835	inactive
7	CrebA (Cyclic-AMP response element binding protein A)	DRSC11122	1.45e5	1.44e5	82955	89970	11205	inactive
8	Fbxl4 (F box and leucine-rich-repeat gene 4)	DRSC19805	2.37e5	2.51e5	2.90e5	3.15e5	14825	inactive
9	CG11291	DRSC04097	68065	42150	59790	84210	1825	inactive
10	Cib2 (Calcium and integrin binding family member 2)	DRSC04535	47905	31465	33495	35970	2440	inactive
